Publication PMC10315267
These are yes or no findings as the source states them, for the method shown. Some binding calls cover weakened binding; strength is not graded here.

Molecular target: T1, LNK1 C-terminal fragment (yeast 2-/3-hybrid construct) (Arabidopsis thaliana) (UniProt A8MQN2)
T1 sequence: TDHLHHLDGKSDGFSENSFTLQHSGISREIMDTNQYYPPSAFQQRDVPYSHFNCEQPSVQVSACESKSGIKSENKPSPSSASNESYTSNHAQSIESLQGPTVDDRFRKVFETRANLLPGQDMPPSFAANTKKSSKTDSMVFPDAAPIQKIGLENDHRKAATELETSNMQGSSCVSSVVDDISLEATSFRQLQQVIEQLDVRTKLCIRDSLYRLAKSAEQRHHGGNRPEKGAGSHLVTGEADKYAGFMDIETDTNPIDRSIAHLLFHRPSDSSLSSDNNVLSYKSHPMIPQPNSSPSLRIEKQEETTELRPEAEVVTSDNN
Test: two-hybrid; binary GAL4 Matchmaker Gold yeast 2-hybrid; bait in pGBKT7 (Y2H Gold), prey in pGADT7 (Y187), mated; growth on SD/-Leu-Trp-His

binding: binds
B1: RVE8 (yeast 2-/3-hybrid construct) (protein, UniProt Q8RWU3 1-298)
chain: MSSSPSRNPTNAEAPPPPPTSTDAVAEGSSKKVRKPYTITKSRESWTEEEHDKFLEALQLFDRDWKKIEDFVGSKTVIQIRSHAQKYFLKVQKNGTLAHVPPPRPKRKAAHPYPQKASKNAQMPLQVSTSFTTTRNGDMPGYASWDDASMLLNRVISPQHELATLRGAEADIGSKGLLNVSSPSTSGMGSSSRTVSGSEIVRKAKQPPVLHGVPDFAEVYNFIGSVFDPETRGHVEKLKEMDPINFETVLLLMRNLTVNLSNPDLESTRKVLLSYDNVTTELPSVVSLVKNSTSDKSA
